Assay results published in PubChem BioAssay AID330 (DTP/NCI, 2004).
The list is a part of this screen's results and no random one: it is rich in T/C values a quarter to a half above the control, in often repeated tests (any T/C) and in doses without a T/C. Other doses and runs of a compound stand elsewhere. T/C is the treated group as % of the vehicle group. Some doses have a count of surviving animals in place of a T/C: the source files T/C as zero there, which appears to mark a toxic dose or a test without result, not a measured value. Some doses without a T/C left all or most animals alive at the check, yet need not have been tolerated: survival well below the control is almost never listed, so the zero probably covers shortened survival too. Counts of survivors are from the toxicity check (mostly the fifth day) where no day follows; animals may have died later. Schedule codes are those of the source, read here as Q, the interval in days (D) or hours (H), X, the number of doses. For survival time, the PubChem record calls one and a half times the control and up active, and a quarter to a half above the control has no call in these data; cut-offs in other NCI protocols can differ. Some entries hold several experiments; the results are listed from low to high. Additions like (4×) stand for listed records that agree.

Tested on: P388 leukemia ip, CD2F1 mice, survival T/C
Assay: NCI In Vivo Anticancer Drug Screen. Data for tumor model P388 Leukemia (intraperitoneal) in CD2F1 (CDF1) mice
Conditions: T/C endpoint: median survival time, higher T/C = longer survival
[1] = dose: 12.5 mg/kg/injection, schedule: Q01DX009 (ip), vehicle: saline with Tween-80
[2] = dose: 240.0 mg/kg/injection, schedule: Q01DX005 (ip), vehicle: saline with Tween-80

## CN(C)CCN1C(=O)c2cccc3cc([N+](=O)[O-])cc(c23)C1=O
dose: 0.78 mg/kg/injection, schedule: Q01DX009 (ip), vehicle: saline with Tween-80
  T/C: 128 % of control
dose: 1.56 mg/kg/injection, schedule: Q01DX009 (ip), vehicle: saline with Tween-80
  T/C: 101 (2×), 128, 129 % of control
dose: 3.12 mg/kg/injection, schedule: Q01DX009 (ip), vehicle: saline with Tween-80
  T/C: 140 % of control
dose: 3.13 mg/kg/injection, schedule: Q01DX009 (ip), vehicle: saline with Tween-80
  T/C: 141 % of control
dose: 6.25 mg/kg/injection, schedule: Q01DX009 (ip), vehicle: saline with Tween-80
  T/C: 118, 142, 144, 151 % of control
[1]
  T/C: 126, 144, 171 % of control
  survivor count: 6 of 6
dose: 25.0 mg/kg/injection, schedule: Q01DX009 (ip), vehicle: saline with Tween-80
  survivor count: 6 of 6
dose: 50.0 mg/kg/injection, schedule: Q01DX009 (ip), vehicle: saline with Tween-80
  survivor count: 0 of 6
dose: 100.0 mg/kg/injection, schedule: Q01DX009 (ip), vehicle: saline with Tween-80
  survivor count: 0 of 6
dose: 200.0 mg/kg/injection, schedule: Q01DX009 (ip), vehicle: saline with Tween-80
  survivor count: 0 of 6

## O=C1C(C=Nc2ccc(S(=O)(=O)Nc3nccs3)cc2)C(=O)N(c2ccccc2)N1c1ccccc1
dose: 50.0 mg/kg/injection, schedule: Q01DX009 (ip), vehicle: Klucel (hydroxypropylcellulose) (HPC)
  survivor count: 6 of 6
dose: 100.0 mg/kg/injection, schedule: Q01DX009 (ip), vehicle: Klucel (hydroxypropylcellulose) (HPC)
  survivor count: 6 of 6
dose: 200.0 mg/kg/injection, schedule: Q01DX009 (ip), vehicle: Klucel (hydroxypropylcellulose) (HPC)
  survivor count: 6 of 6

## CCC(C)P(=O)(N1CC1C)N1CC1C (stereo not given)
dose: 12.5 mg/kg/injection, schedule: Q01DX009 (ip), vehicle: saline
  survivor count: 6 of 6
dose: 25.0 mg/kg/injection, schedule: Q01DX009 (ip), vehicle: saline
  survivor count: 0 of 6
dose: 50.0 mg/kg/injection, schedule: Q01DX009 (ip), vehicle: saline
  survivor count: 0 of 6

## CC(=O)[C@]1(O)Cc2c(O)c3c(c(O)c2[C@@H](OC2CC(NC(=O)C(F)(F)F)C(O)C(C)O2)C1)C(=O)c1c(O)cccc1C3=O (stereo not given in full)
dose: 50.0 mg/kg/injection, schedule: Q04DX003 (ip), vehicle: water
  T/C: 144 % of control

## C/C(=N\NC(=S)N1CC(C)OC(C)C1)c1ncccn1 (stereo not given)
dose: 30.0 mg/kg/injection, schedule: Q01DX005 (ip), vehicle: saline with Tween-80
  survivor count: 4 of 6
dose: 60.0 mg/kg/injection, schedule: Q01DX005 (ip), vehicle: saline with Tween-80
  survivor count: 5 of 6
dose: 120.0 mg/kg/injection, schedule: Q01DX005 (ip), vehicle: saline with Tween-80
  survivor count: 0 of 6
[2]
  survivor count: 0 of 6

## O=C(Nc1ccc([N+](=O)[O-])cc1C(Sc1ccccc1)c1ccccc1)c1ccc([N+](=O)[O-])cc1 (stereo not given)
dose: 400.0 mg/kg/injection, schedule: Q01DX001 (ip), vehicle: saline with Tween-80
  survivor count: 6 of 6

## O=C(O)CCC(=O)C1=CSC(=C2SC=CS2)S1
dose: 120.0 mg/kg/injection, schedule: Q01DX005 (ip), vehicle: Klucel + Tween-80
  survivor count: 1 of 6
dose: 240.0 mg/kg/injection, schedule: Q01DX005 (ip), vehicle: Klucel + Tween-80
  survivor count: 0 of 6

## O=C(Nc1ccc(-c2ccc(NC(=O)C34CC5CC(CC(C5)C3)C4)cc2)cc1)C12CC3CC(CC(C3)C1)C2
dose: 50.0 mg/kg/injection, schedule: Q01DX005 (ip), vehicle: Klucel (hydroxypropylcellulose) (HPC)
  survivor count: 5 of 6
dose: 200.0 mg/kg/injection, schedule: Q01DX005 (ip), vehicle: Klucel (hydroxypropylcellulose) (HPC)
  survivor count: 3 of 6

## CC12CCCCC1=CC(=O)CC2 (stereo not given)
dose: 100.0 mg/kg/injection, schedule: Q01DX009 (ip), vehicle: other
  T/C: 134 % of control
dose: 200.0 mg/kg/injection, schedule: Q01DX009 (ip), vehicle: saline + Tween-80 + alcohol
  survivor count: 2 of 6

## C=C(c1ccc(OC)cc1)C(CC)c1ccc(OC)cc1 (stereo not given)
[2]
  survivor count: 6 of 6

## CSC(=S)N/N=C/c1ccc[nH]1
dose: 200.0 mg/kg/injection, schedule: Q01DX009 (ip), vehicle: saline
  survivor count: 2 of 6

## CSc1nc(N)c(NS(=O)(=O)c2ccc([N+](=O)[O-])cc2)c(=O)[nH]1
dose: 120.0 mg/kg/injection, schedule: Q01DX005 (ip), vehicle: Klucel (hydroxypropylcellulose) (HPC)
  survivor count: 6 of 6
dose: 240.0 mg/kg/injection, schedule: Q01DX005 (ip), vehicle: Klucel (hydroxypropylcellulose) (HPC)
  survivor count: 6 of 6

## Clc1cc(Cl)c2n[se]nc2n1
dose: 200.0 mg/kg/injection, schedule: Q04DX002 (ip), vehicle: saline
  survivor count: 1 of 6
dose: 400.0 mg/kg/injection, schedule: Q04DX002 (ip), vehicle: saline
  survivor count: 0 of 6
